Experimental data published in publication PMC11563578.
No constants are given. Whether binding was seen depends on the method and setting. Some results given as binding are weak or reduced against the parent protein; the word gives no strength.

Biological target: T1, TATA box binding protein (TBP) (UniProt P13393)
T1 sequence: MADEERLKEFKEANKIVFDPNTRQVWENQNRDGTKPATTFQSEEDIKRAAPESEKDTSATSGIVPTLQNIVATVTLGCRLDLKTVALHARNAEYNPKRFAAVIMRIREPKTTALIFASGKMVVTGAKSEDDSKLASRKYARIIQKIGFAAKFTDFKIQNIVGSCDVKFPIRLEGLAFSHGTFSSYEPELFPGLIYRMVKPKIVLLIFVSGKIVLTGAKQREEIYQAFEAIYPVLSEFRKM
Experiment: cross-linking; 20 ug of each purified protein in 100 ul 20 mM HEPES-NaOH pH 7.9, 100 mM KOAc, 30 min at RT as TBP/TFIIA, TBP/TFIIB (C1q2) and TBP/TFIIA/TFIIB (C2q2); ~1 mM Q2linker for 2 hr; pooled, trypsin, SCX, MS (pLink2 and Nexus); both purified

B1: TFIIA (TOA1/TOA2) (complex, UniProt P32773 1-286; P32774 1-122)
chain 1: MSNAEASRVYEIIVESVVNEVREDFENAGIDEQTLQDLKNIWQKKLTETKVTTFSWDNQFNEGNINGVQNDLNFNLATPGVNSSEFNIKEENTGNEGLILPNINSNNNIPHSGETNINTNTVEATNNSGATLNTNTSGNTNADVTSQPKIEVKPEIELTINNANITTVENIDDESEKKDDEEKEEDVEKTRKEKEQIEQVKLQAKKEKRSALLDTDEVGSELDDSDDDYLISEGEEDGPDENLMLCLYDKVTRTKARWKCSLKDGVVTINRNDYTFQKAQVEAEWV
chain 2: MAVPGYYELYRRSTIGNSLVDALDTLISDGRIEASLAMRVLETFDKVVAETLKDNTQSKLTVKGNLDTYGFCDDVWTFIVKNCQVTVEDSHRDASQNGSGDSQSVISVDKLRIVACNSKKSE
  binding: binds

B2: TFIIB (protein, UniProt P29055 1-345)
chain: MMTRESIDKRAGRRGPNLNIVLTCPECKVYPPKIVERFSEGDVVCALCGLVLSDKLVDTRSEWRTFSNDDHNGDDPSRVGEASNPLLDGNNLSTRIGKGETTDMRFTKELNKAQGKNVMDKKDNEVQAAFAKITMLCDAAELPKIVKDCAKEAYKLCHDEKTLKGKSMESIMAASILIGCRRAEVARTFKEIQSLIHVKTKEFGKTLNIMKNILRGKSEDGFLKIDTDNMSGAQNLTYIPRFCSHLGLPMQVTTSAEYTAKKCKEIKEIAGKSPITIAVVSIYLNILLFQIPITAAKVGQTLQVTEGTIKSGYKILYEHRDKLVDPQLIANGVVSLDNLPGVEKK
  binding: binds
